ChEMBL document CHEMBL1629563, “Pharmacokinetic and safety evaluation of BILR 355, a second-generation nonnucleoside reverse transcriptase inhibitor, in healthy volunteers” (Antimicrob Agents Chemother, 2008)
Further values from the same series stand in other lists.

Key:
Conditions in all cases: in vivo
Homo sapiens [1] = assay: Toxicity in healthy human assessed as occurrence of constipation at 12.5 mg, po administered as single dose relative to control; format: organism-based
Homo sapiens [2] = assay: Toxicity in healthy human assessed as occurrence of vomiting at 1 mg, po administered as single dose relative to control; format: organism-based
Homo sapiens [3] = assay: Toxicity in healthy human assessed as occurrence of vomiting at 100 mg, po administered as single dose relative to control; format: organism-based
Homo sapiens [4] = assay: Toxicity in healthy human assessed as occurrence of flatulence at 5 mg, po administered as single dose relative to control; format: organism-based
Homo sapiens [5] = assay: Toxicity in healthy human assessed as occurrence of vomiting at 5 mg, po administered as single dose relative to control; format: organism-based
Homo sapiens [6] = assay: Toxicity in healthy human assessed as occurrence of aphthous stomatitis at 5 mg, po administered as single dose coadministered with 100 mg of ritonavir; format: organism-based
Homo sapiens [7] = assay: Toxicity in healthy human assessed as occurrence of vomiting at 25 mg, po administered as single dose relative to control; format: organism-based
Homo sapiens [8] = assay: Toxicity in healthy human assessed as occurrence of maculopapular rash at 50 mg, po administered as single dose relative to control; format: organism-based
Homo sapiens [9] = assay: Toxicity in healthy human assessed as occurrence of herpes simplex at 1 mg, po administered as single dose relative to control; format: organism-based
Homo sapiens [10] = assay: Toxicity in healthy human assessed as occurrence of migraine at 75 mg, po administered as single dose relative to control; format: organism-based
Homo sapiens [11] = assay: Toxicity in healthy human assessed as occurrence of neurological eyelid disorder at 50 mg, po administered as single dose relative to control; format: organism-based
Homo sapiens [12] = assay: Toxicity in healthy human assessed as occurrence of maculopapular rash at 25 mg, po administered as single dose relative to control; format: organism-based
Homo sapiens [13] = assay: Toxicity in healthy human assessed as occurrence of aphthous stomatitis at 25 mg, po administered as single dose coadministered with 100 mg of ritonavir; format: organism-based
Homo sapiens [14] = assay: Toxicity in healthy human assessed as occurrence of constipation at 100 mg, po administered as single dose relative to control; format: organism-based
Homo sapiens [15] = assay: Toxicity in healthy human assessed as occurrence of fatigue at 50 mg, po administered as single dose relative to control; format: organism-based
Homo sapiens [16] = assay: Toxicity in healthy human assessed as occurrence of aphthous stomatitis at 12.5 mg, po administered as single dose coadministered with 100 mg of ritonavir; format: organism-based
Homo sapiens [17] = assay: Toxicity in healthy human assessed as occurrence of aphthous stomatitis at 87.5 mg, po administered as single dose coadministered with 100 mg of ritonavir; format: organism-based
Homo sapiens [18] = assay: Toxicity in healthy human assessed as occurrence of diarrhea at 37.5 mg, po administered as single dose coadministered with 100 mg of ritonavir; format: organism-based
Homo sapiens [19] = assay: Toxicity in healthy human assessed as occurrence of headache at 1 mg, po administered as single dose relative to control; format: organism-based
Homo sapiens [20] = assay: Toxicity in healthy human assessed as occurrence of abdominal pain at 50 mg, po administered as single dose relative to control; format: organism-based, Abdomen
Homo sapiens [21] = assay: Toxicity in healthy human assessed as occurrence of diarrhea at 75 mg, po administered as single dose coadministered with 100 mg of ritonavir; format: organism-based
Homo sapiens [22] = assay: Toxicity in healthy human assessed as occurrence of flatulence at 75 mg, po administered as single dose relative to control; format: organism-based
Homo sapiens [23] = assay: Toxicity in healthy human assessed as occurrence of flatulence at 25 mg, po administered as single dose relative to control; format: organism-based
Homo sapiens [24] = assay: Toxicity in healthy human assessed as occurrence of herpes simplex at 25 mg, po administered as single dose relative to control; format: organism-based
Homo sapiens [25] = assay: Toxicity in healthy human assessed as occurrence of fatigue at 1 mg, po administered as single dose relative to control; format: organism-based
Homo sapiens [26] = assay: Toxicity in healthy human assessed as occurrence of maculopapular rash at 50 mg, po administered as single dose coadministered with 100 mg of ritonavir; format: organism-based
Homo sapiens [27] = assay: Toxicity in healthy human assessed as occurrence of fatigue at 100 mg, po administered as single dose relative to control; format: organism-based
Homo sapiens [28] = assay: Toxicity in healthy human assessed as occurrence of maculopapular rash at 12.5 mg, po administered as single dose relative to control; format: organism-based
Homo sapiens [29] = assay: Toxicity in healthy human assessed as occurrence of diarrhea at 100 mg, po administered as single dose; format: organism-based
Homo sapiens [30] = assay: Toxicity in healthy human assessed as occurrence of aphthous stomatitis at 37.5 mg, po administered as single dose coadministered with 100 mg of ritonavir; format: organism-based
Homo sapiens [31] = assay: Toxicity in healthy human assessed as occurrence of flatulence at 100 mg, po administered as single dose relative to control; format: organism-based
Homo sapiens [32] = assay: Toxicity in healthy human assessed as occurrence of abdominal pain at 5 mg, po administered as single dose relative to control; format: organism-based, Abdomen
Homo sapiens [33] = assay: Toxicity in healthy human assessed as occurrence of nausea at 1 mg, po administered as single dose relative to control; format: organism-based
Homo sapiens [34] = assay: Toxicity in healthy human assessed as occurrence of constipation at 75 mg, po administered as single dose relative to control; format: organism-based
Homo sapiens [35] = assay: Toxicity in healthy human assessed as occurrence of maculopapular rash at 87.5 mg, po administered as single dose coadministered with 100 mg of ritonavir; format: organism-based
Homo sapiens [36] = assay: Toxicity in healthy human assessed as occurrence of increase in alanine aminotransferase level at 5 mg, po administered as single dose relative to control; format: organism-based
Homo sapiens [37] = assay: Toxicity in healthy human assessed as occurrence of neurological eyelid disorder at 12.5 mg, po administered as single dose relative to control; format: organism-based

Measured: Activity

CCN1c2ncc(CCOc3cc[n+]([O-])c4ccccc34)cc2C(=O)N(C)c2cccnc21 [BILR 355]
20%: Homo sapiens [27]
14.3%: Homo sapiens [6]
8.3%: Homo sapiens [29]
0%: Homo sapiens [1] | Homo sapiens [2] | Homo sapiens [3] | Homo sapiens [4] | Homo sapiens [5] | Homo sapiens [7] | Homo sapiens [8] | Homo sapiens [9] | Homo sapiens [10] | Homo sapiens [11] | Homo sapiens [14] | Homo sapiens [16] | Homo sapiens [17] | Homo sapiens [18] | Homo sapiens [19] | Homo sapiens [20] | Homo sapiens [21] | Homo sapiens [23] | Homo sapiens [24] | Homo sapiens [26] | Homo sapiens [28] | Homo sapiens [30] | Homo sapiens [31] | Homo sapiens [32] | Homo sapiens [33] | Homo sapiens [34] | Homo sapiens [37]
16.7%: Homo sapiens [12] | Homo sapiens [13] | Homo sapiens [15] | Homo sapiens [22] | Homo sapiens [25] | Homo sapiens [35] | Homo sapiens [36]
